In paper PMC5999948 one finds binding data, which are given here for 1 substance.

By UniProt entry, the sequences of proteins in these tests, tags left out. Where a name states a change or a piece, a line headed by the entry shows the natural chain unless it says otherwise.
UniProt Q99MQ3: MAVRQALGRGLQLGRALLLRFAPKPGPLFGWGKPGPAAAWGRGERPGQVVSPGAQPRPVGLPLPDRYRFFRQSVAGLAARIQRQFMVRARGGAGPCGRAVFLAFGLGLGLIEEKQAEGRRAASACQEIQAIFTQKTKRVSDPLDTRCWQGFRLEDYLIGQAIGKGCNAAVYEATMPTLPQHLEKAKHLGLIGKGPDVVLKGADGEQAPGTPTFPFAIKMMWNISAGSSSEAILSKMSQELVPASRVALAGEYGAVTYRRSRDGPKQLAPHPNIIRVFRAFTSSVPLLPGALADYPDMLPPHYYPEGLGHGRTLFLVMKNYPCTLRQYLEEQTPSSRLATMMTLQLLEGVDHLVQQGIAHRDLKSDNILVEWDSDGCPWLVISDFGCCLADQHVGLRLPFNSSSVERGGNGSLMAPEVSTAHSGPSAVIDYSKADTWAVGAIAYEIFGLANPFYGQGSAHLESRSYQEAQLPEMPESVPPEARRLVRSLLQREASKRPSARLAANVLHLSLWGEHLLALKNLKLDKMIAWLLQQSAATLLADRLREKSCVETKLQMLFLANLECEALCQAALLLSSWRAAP

The target in this test is T1, Parkin (mouse (endogenous in SN4741)) (UniProt Q9WVS6).
T1 sequence: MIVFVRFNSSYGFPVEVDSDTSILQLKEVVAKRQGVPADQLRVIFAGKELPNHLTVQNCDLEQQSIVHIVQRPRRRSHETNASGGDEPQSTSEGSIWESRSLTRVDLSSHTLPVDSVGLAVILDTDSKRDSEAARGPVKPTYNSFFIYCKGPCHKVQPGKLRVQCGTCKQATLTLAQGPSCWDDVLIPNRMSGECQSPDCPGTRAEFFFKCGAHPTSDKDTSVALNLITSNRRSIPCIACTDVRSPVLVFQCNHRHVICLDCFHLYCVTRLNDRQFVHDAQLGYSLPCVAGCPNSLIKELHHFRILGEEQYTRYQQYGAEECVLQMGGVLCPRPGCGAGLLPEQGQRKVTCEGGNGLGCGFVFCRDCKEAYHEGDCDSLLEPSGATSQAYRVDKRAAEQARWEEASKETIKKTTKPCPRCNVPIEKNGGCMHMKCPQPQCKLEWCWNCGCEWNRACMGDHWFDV
As to the kind of experiment: co-IP; SN4741 cell lysates (empty vector or α-synuclein A53T, DMSO or SB203580 10 μM 24 h); IP with anti-Parkin, immunoblot for PINK1; IgG control; lysis in 20 mM Tris-HCl pH 7.4, 150 mM NaCl, 1% Triton X-100; beads washed with RIPA. Background: Immunoblotting shows a protein as a band on a membrane.

No constants are given. Whether binding was seen depends on the method and setting. In cells and extracts the contact can be indirect. Some results given as binding are weak or reduced against the parent protein; the word gives no strength.

Regarding PINK1 (from UniProt Q99MQ3 78-580), the binding result is reported as “binds”.
